About 1,000 (0.3%) of roughly 330,000 compounds were called active. The inconclusive results got no clear call from the source; some entries with a clear call stand among them for comparison. Calls come from the whole dose curve; as a rule, active = well fitted inhibition curve with a large enough effect; inconclusive = small, poorly fitted or top-dose-only effect; inactive = no such curve, though single readings can be large or run the other way; tested in mouse RAW 264.7 cells. Where the call is inconclusive, the potency comes from a doubtful curve fit.
Assay: qHTS for Inhibitors of Cell Surface uPA Generation; note: nearly all actives have a fitted effect of over 55% in size
Details: cell surface uPA generation assay; series mostly up to 38.3 µM; activity change, negative = inhibition: at the top concentration
How it was run: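 RAW 264.7 cells, 4000/well, given compound (1:5 dilutions, up to 38.3 uM final) and incubated 24 h at 37 C. Blocked uPA-dependent LF entry keeps ATP high; ATPlite luminescence read, 5 s exposure.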
% is set by controls: 0 for no effect and ±100 for the full control effect; potency is the fitted concentration of half-maximal effect.

| SMILES | activity change, negative = inhibition | Potency |
| --- | --- | --- |
| C/C(=N\N=C(N)N)c1cccc(Cl)c1 | inactive: -4.7% | – |
| CCOC(=O)c1cc(-c2ccc(F)cc2)n(CCC(=O)NC2CCN(Cc3ccccc3)CC2)c1C | – | inconclusive: 11.2 µM [inhibitor, single point] |
| O=C(Cc1cc2ccccc2o1)NCc1ccc(F)cc1 | – | inconclusive: 4.47 µM [inhibitor, partial curve, poor fit] |
| CCc1ccc(NC(=O)c2cc(C)no2)cc1 | inactive: 16.8% | – |
| C/C(=N\NC(=O)c1ccccc1)c1ccc(C)c([N+](=O)[O-])c1 | inactive: -0.658% | – |
| COc1ccc2[nH]c3c(c2c1)CCN1C(=O)C(CC(=O)NCC24CC5CC(CC(C5)C2)C4)C[C@H](C(=O)N2CCOCC2)[C@@]31C (stereo partly drawn) | – | inconclusive: 11.2 µM [inhibitor, single point] |
| O=C(N/N=C/c1cc([N+](=O)[O-])ccc1O)C1CC1 | – | inconclusive: 10 µM [inhibitor, partial curve, poor fit] |
| COc1ccc2nc(N(CCN(C)C)C(=O)/C=C/c3cccs3)sc2c1 | – | active: 10 µM |
| C=CCc1c(C)nc(-c2ccccc2)nc1N/N=C/c1ccncc1 | inactive: -4.55% | – |
| Cc1cc(SCC(=O)Nc2cccc(S(=O)(=O)NC3=NCCCCC3)c2)nc2ccccc12 | – | inconclusive: 12.6 µM [inhibitor, partial curve, poor fit] |
| CC(C)(C)c1cc(NC(=O)Nc2ccccc2)no1 | – | inconclusive: 2.82 µM [inhibitor, single point] |
| O=C1CN(C(=O)c2ccc(Br)o2)C(c2ccccc2)c2cc(Br)ccc2N1 (stereo not drawn) | – | inconclusive: 28.2 µM [inhibitor, single point] |
| Cc1cc(C(=O)Nn2c(-c3ccc(Br)cc3)nc3ccccc3c2=O)ccc1[N+](=O)[O-] | inactive: 1.13% | – |
| O=C(/C=C/c1ccco1)Nc1ccc(Cl)c(S(=O)(=O)N2CCOCC2)c1 | – | inconclusive: 10 µM [inhibitor, partial curve, poor fit] |
| CCC(=O)N1c2ccccc2NC2=C(C(=O)CC(c3ccco3)C2)C1c1ccco1 (stereo not drawn) | inactive: 8.12% | – |
| O=c1oc2ccccc2c(Nc2cccc3cccnc23)c1[N+](=O)[O-] | inactive: -5.68% | – |
| Cc1cc(C)n(C(N)=NC(=O)c2ccc([N+](=O)[O-])cc2)n1 | – | inconclusive: 1.41 µM [inhibitor, partial curve, poor fit] |
| CCc1nc(SCC(=O)Nc2ccc(N(C)C)cc2)c2ccccc2n1 | – | inconclusive: 28.2 µM [inhibitor, single point] |
| C#CCOCCOCCOCCNc1nc(N2CCN(C(=O)CCCCCCCCCCNC(=O)[C@@H](CCSC)n3cc(CCO)nn3)CC2)nc(N2CCN(C(=O)CCCCCCCCCCNC(=O)[C@H]([C@@H](C)CC)n3cc(CCCCCN)nn3)CC2)n1 | – | inconclusive: 12.6 µM [inhibitor, single point] |
| CCN(CC)S(=O)(=O)c1cc(NC(=O)C(C)OC(=O)c2[nH]c(C)c(C(C)=O)c2C)ccc1C (stereo not drawn) | – | inconclusive: 31.6 µM [inhibitor, single point] |
| Cc1nn(-c2ccc(N3CCOCC3)nn2)c(C)c1CCC(=O)Nc1ccccc1 | inactive: -0.55% | – |
| CNC(=S)N/N=C/c1cn(Cc2ccc(C)cc2)c2ccccc12 | – | inconclusive: 20 µM [inhibitor, single point] |
| CCOC(=O)c1cnc(SCC(C)C)nc1N | inactive: 3.88% | – |

| SMILES | activity change, negative = inhibition | Potency |
| --- | --- | --- |
| COc1ccc(-n2nc3ccc(N)cc3n2)cc1Cl | – | inconclusive: 14.1 µM [inhibitor, partial curve, poor fit] |
| O=C(OCc1csc(-c2ccccc2)n1)C1=NN(c2ccccc2)C(=O)CC1 | – | inconclusive: 0.282 µM [inhibitor, full curve, poor fit] |
| COc1cccc(/C=N/NC(=O)CNC(=O)CCc2ccccc2)c1O | – | inconclusive: 12.6 µM [inhibitor, single point] |
| O=C(CSc1ccccn1)Nc1ccc(Cl)cn1 | – | inconclusive: 2.82 µM [inhibitor, single point] |
| CN(C(=O)c1cccc(NC(=O)Cc2cccc(NC(=O)C3CCCN(C(=O)CCc4ccccc4)C3)c2)c1)C1CCC1 (stereo not drawn) | – | inconclusive: 28.2 µM [inhibitor, single point] |
| COc1ccc(Nc2nc(N)c([N+](=O)[O-])c(N3CCCC3)n2)cc1 | – | inconclusive: 8.91 µM [inhibitor, partial curve, poor fit] |
| CCOc1ccc2nc(NC(=O)C3(C)CC3(Br)Br)sc2c1 (stereo not drawn) | – | inconclusive: 8.91 µM [inhibitor, single point] |
| O=C1N[C@@H](c2ccccc2)COC(=O)[C@@H](Cc2ccc(F)cc2)CC/C=C/C[C@@H]1CC(=O)N(CCO)Cc1ccccc1 | – | inconclusive: 22.4 µM [inhibitor, single point] |
| CCNC(=S)Nc1ccc(Oc2ccccc2)cc1 | inactive: 0.553% | – |
| O=C(NCCc1cccc(Cl)c1)c1ccc(OC2CCN(Cc3ccccn3)CC2)cc1 | – | inconclusive: 12.6 µM [inhibitor, single point] |
| O=C(c1ccc(F)cc1)n1c(=S)nc2ccccn21 | – | inconclusive: 1.41 µM [inhibitor, full curve, poor fit] |
| CCOc1ccc(Br)cc1C1=NN(C(C)=O)C(c2ccc([N+](=O)[O-])s2)O1 (stereo not drawn) | – | active: 6.31 µM |
| COc1ccc2[nH]c(C(=O)N/N=C/c3ccc(O)cc3O)cc2c1 | – | inconclusive: 2.82 µM [inhibitor, full curve, poor fit] |
| Cc1nnc(NC(=O)c2oc3c(ccc4ccccc43)c2C)s1 | inactive: -2.45% | – |
| O=C1C(=O)c2c(C(=O)c3ccccc3)coc2-c2ccccc21 | inactive: -14.1% | – |
| CCOC(=O)c1cnc2ccc(OCC)cc2c1NCCCN1CCOCC1 | – | inconclusive: 11.2 µM [inhibitor, partial curve] |
| OC[C@H]1O[C@@H](n2cnc3c(NCc4ccco4)ncnc32)[C@H](O)[C@@H]1O | – | inconclusive: 0.355 µM [inhibitor, full curve, poor fit] |
| O=c1c2ccccc2oc2c1ccc1ccccc12 | – | inconclusive: 10 µM [inhibitor, single point] |
| O=c1cc(-c2ccc(O)c(-c3c(O)cc(O)c4c(=O)cc(-c5ccc(O)cc5)oc34)c2)oc2cc(O)cc(O)c12 | inactive: 6.8% | – |
| CC(C)C[C@H]1CN=C(N(C)C)N1CCCCc1ccccc1 | – | inconclusive: 3.16 µM [inhibitor, partial curve] |
| Cc1c(NC(=O)Nc2cccs2)cccc1[N+](=O)[O-] | – | inconclusive: 28.2 µM [inhibitor, single point] |
| COc1ccc(C(=O)Nc2ccc3ccccc3n2)c(OC)c1OC | – | active: 2.82 µM |
| COc1ccc(Cl)cc1NC(=O)CCc1nnc2ccc(N3CCC4(CC3)OCCO4)nn12 | inactive: -1.65% | – |

| SMILES | activity change, negative = inhibition | Potency |
| --- | --- | --- |
| COc1ccc(-c2cn3c(C)c(C(=O)Nc4cc(NC(C)=O)ccc4OC)sc3n2)cc1 | – | inconclusive: 0.0079 µM [inhibitor, full curve, poor fit] |
| CC(C(=O)NC1C=CS(=O)(=O)C1)N1C(=O)/C(=C/c2cccc(Cl)c2)SC1=S (stereo not drawn) | – | inconclusive: 8.91 µM [inhibitor, partial curve, poor fit] |
| CC(C)(C)c1cc(CCC(=O)NCc2cccnc2)cc(C(C)(C)C)c1O | inactive: 4.64% | – |
| O=C(CN1C(=O)COc2ccccc21)Nc1ccc(F)cc1 | – | inconclusive: 5.62 µM [inhibitor, partial curve, poor fit] |
| CC(NC(=O)Nc1ccc(Cl)cc1)c1ccccc1 (stereo not drawn) | inactive: 19.6% | – |
| CC(C)(C)NC(=O)C[C@H]1C[C@H](C(=O)N2CCOCC2)[C@@]2(CCC3CCCC3)c3[nH]c4ccc(Cl)cc4c3CCN2C1=O | – | inconclusive: 28.2 µM [inhibitor, single point] |
| CN(Cc1nc(Cc2ccccc2F)no1)CC1(N2CCOCC2)CCCCC1 | inactive: 1.22% | – |
| Cc1cc(C)c(C#N)c(SCc2ccccc2F)n1 | inactive: 2.28% | – |
| O=C(CSc1c2c(nc3ccc(Cl)cc13)CCCC2)NCCCN1CCOCC1 | – | active: 8.91 µM |
| O=C(CCCCCBr)N1CCC(CC2CC(c3cccc(Br)c3)=NO2)(C(=O)NCC2CCCCC2)CC1 (stereo not drawn) | – | inconclusive: 7.08 µM [inhibitor, single point] |
| O=C(/C=C/c1cccs1)N1CCN(c2ccccc2F)CC1 | – | inconclusive: 31.6 µM [inhibitor, partial curve, poor fit] |
| O=C(/C=C/c1cccc(O)c1)c1ccc(N2CCOCC2)cc1 | – | active: 10 µM |
| COC(=O)c1ccc(CSc2nc3ccccc3c(=O)n2-c2ccc(OC)c(OC)c2)o1 | inactive: 8.81% | – |
| CCOc1cc(C(N)=O)cc(OCC)c1OCC | inactive: 1.72% | – |
| COC(=O)c1ccc(-c2n[nH]c(=O)c3ccccc23)cc1 | inactive: 3.27% | – |
| COc1ccc(Cl)cc1NC(=O)Cn1c(NCCO)nc2ccccc21 | inactive: -2.59% | – |
| COc1cc(NC(=O)COc2cc(O)c3c(c2)OC(C)(C)CC3=O)cc(OC)c1OC | – | inconclusive: 0.447 µM [inhibitor, full curve, poor fit] |
| Cc1oc2cc([N+](=O)[O-])c(O)c([N+](=O)[O-])c2c1C(=O)c1ccc(Cl)cc1 | – | inconclusive: 3.98 µM [inhibitor, partial curve, poor fit] |
| Cc1nc(C)c(-c2csc(Nc3ccc(O)cc3C)n2)s1 | inactive: -3.93% | – |
| CCOc1ccccc1NC(=O)C1CCCN1C(=O)c1cccs1 (stereo not drawn) | – | inconclusive: 0.01 µM [inhibitor, full curve, poor fit] |
| CC(=O)c1sc(NC(=O)C2(F)C(F)(F)C(F)(F)C(F)(F)C(F)(F)C2(F)F)nc1C | – | inconclusive: 8.91 µM [inhibitor, single point] |
| CCC(C)Sc1cc(-c2nc3ccc(C)cn3c2NCc2ccccc2)ccc1OC (stereo not drawn) | – | active: 4.47 µM |

Molecules shown so far containing a tert-butyl group:

| SMILES | activity change, negative = inhibition | Potency |
| --- | --- | --- |
| CC(C)(C)c1cc(NC(=O)Nc2ccccc2)no1 | – | inconclusive: 2.82 µM [inhibitor, single point] |
| CC(C)(C)c1cc(CCC(=O)NCc2cccnc2)cc(C(C)(C)C)c1O | inactive: 4.64% | – |
| CC(C)(C)NC(=O)C[C@H]1C[C@H](C(=O)N2CCOCC2)[C@@]2(CCC3CCCC3)c3[nH]c4ccc(Cl)cc4c3CCN2C1=O | – | inconclusive: 28.2 µM [inhibitor, single point] |
